{"source": "PubChem BioAssay AID493246 (Drosophila RNAi Screening Center, 2011)", "test": "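Genes fly cells need to grow and stay alive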 (primary screen)", "cells": "Drosophila Kc and S2R+ cells", "reagents": "long dsRNA against Drosophila genes", "read-out": "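Cell number per well after knock-down, printed as raw plate values; calls were based on per-plate z-scores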", "scale": "Kc cell number and S2R+ cell number: higher = more cells remaining", "hit rule": "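Active when the per-plate z-score of cell number is 3 or more in the direction of fewer cells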", "note": "The screen tested about 21,000 reagents; this is a random part of those with a known target gene and a result. In the full data, 429 (2%) are marked active. 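Values are raw and not normalised between plates; calls rest on per-plate z-scores that were not deposited.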 The numbers tell different reagents against one gene apart. A plus sign joins genes that one reagent is predicted to hit. Reagent sequences are not shown. The record does not give: the amount of reagent, the time to read-out."}
{"gene knocked down": "CG6277", "reagent": 1, "Kc cell number, rep 1": 1.40e6, "Kc cell number, rep 2": 1.39e6, "S2R+ cell number, rep 1": 9.97e5, "S2R+ cell number, rep 2": 1.10e6, "call": "inactive"}
{"gene knocked down": "Pxn (Peroxidasin)", "reagent": 1, "Kc cell number, rep 1": 1.19e6, "Kc cell number, rep 2": 1.27e6, "S2R+ cell number, rep 1": 1.01e6, "S2R+ cell number, rep 2": 8.94e5, "call": "inactive"}
{"gene knocked down": "Pp2B-14D (Protein phosphatase 2B at 14D)", "reagent": 1, "Kc cell number, rep 1": 1.43e6, "Kc cell number, rep 2": 1.43e6, "S2R+ cell number, rep 1": 9.20e5, "S2R+ cell number, rep 2": 1.01e6, "call": "inactive"}
{"gene knocked down": "FeCH (Ferrochelatase)", "reagent": 1, "Kc cell number, rep 1": 4.73e5, "S2R+ cell number, rep 1": 7.99e5, "call": "inactive"}
{"gene knocked down": "Mccc2 (Methylcrotonoyl-CoA carboxylase 2)", "reagent": 1, "Kc cell number, rep 1": 1.63e6, "Kc cell number, rep 2": 1.69e6, "S2R+ cell number, rep 1": 1.39e6, "S2R+ cell number, rep 2": 1.45e6, "call": "inactive"}
{"gene knocked down": "CG14000 + bchs", "reagent": 1, "Kc cell number, rep 1": 1.48e6, "Kc cell number, rep 2": 1.33e6, "S2R+ cell number, rep 1": 1.09e6, "S2R+ cell number, rep 2": 1.21e6, "call": "inactive"}
{"gene knocked down": "CG30099", "reagent": 1, "Kc cell number, rep 1": 1.54e6, "Kc cell number, rep 2": 1.59e6, "S2R+ cell number, rep 1": 1.09e6, "S2R+ cell number, rep 2": 1.25e6, "call": "inactive"}
{"gene knocked down": "zen2 (zerknullt-related)", "reagent": 1, "Kc cell number, rep 1": 1.29e6, "Kc cell number, rep 2": 1.43e6, "S2R+ cell number, rep 1": 1.19e6, "S2R+ cell number, rep 2": 1.27e6, "call": "inactive"}
{"gene knocked down": "Cpr49Aa (Cuticular protein 49Aa)", "reagent": 1, "Kc cell number, rep 1": 1.61e6, "Kc cell number, rep 2": 1.62e6, "S2R+ cell number, rep 1": 1.17e6, "S2R+ cell number, rep 2": 1.30e6, "call": "inactive"}
{"gene knocked down": "CG4820", "reagent": 1, "Kc cell number, rep 1": 1.46e6, "Kc cell number, rep 2": 1.48e6, "S2R+ cell number, rep 1": 1.20e6, "S2R+ cell number, rep 2": 1.31e6, "call": "inactive"}
{"gene knocked down": "CG12438", "reagent": 1, "Kc cell number, rep 1": 1.64e6, "Kc cell number, rep 2": 1.63e6, "S2R+ cell number, rep 1": 1.11e6, "S2R+ cell number, rep 2": 1.29e6, "call": "inactive"}
{"gene knocked down": "ZnT41F (Zinc transporter 41F)", "reagent": 1, "Kc cell number, rep 1": 1.48e6, "Kc cell number, rep 2": 1.53e6, "S2R+ cell number, rep 1": 1.13e6, "S2R+ cell number, rep 2": 1.15e6, "call": "inactive"}
{"gene knocked down": "GC2", "reagent": 1, "Kc cell number, rep 1": 1.89e6, "Kc cell number, rep 2": 1.90e6, "S2R+ cell number, rep 1": 1.30e6, "S2R+ cell number, rep 2": 1.26e6, "call": "inactive"}
{"gene knocked down": "sPLA2 (secretory Phospholipase A2)", "reagent": 1, "Kc cell number, rep 1": 1.58e6, "Kc cell number, rep 2": 1.66e6, "S2R+ cell number, rep 1": 1.28e6, "S2R+ cell number, rep 2": 1.44e6, "call": "inactive"}
{"gene knocked down": "CG10793", "reagent": 1, "Kc cell number, rep 1": 1.69e6, "Kc cell number, rep 2": 1.80e6, "S2R+ cell number, rep 1": 1.12e6, "S2R+ cell number, rep 2": 1.31e6, "call": "inactive"}
{"gene knocked down": "CG9624", "reagent": 1, "Kc cell number, rep 1": 1.20e6, "Kc cell number, rep 2": 1.22e6, "S2R+ cell number, rep 1": 9.71e5, "S2R+ cell number, rep 2": 1.16e6, "call": "inactive"}
{"gene knocked down": "CG4025", "reagent": 1, "Kc cell number, rep 1": 1.46e6, "Kc cell number, rep 2": 1.48e6, "S2R+ cell number, rep 1": 1.05e6, "S2R+ cell number, rep 2": 1.15e6, "call": "inactive"}
{"gene knocked down": "Mekk1", "reagent": 1, "Kc cell number, rep 1": 1.67e6, "Kc cell number, rep 2": 1.70e6, "S2R+ cell number, rep 1": 1.23e6, "S2R+ cell number, rep 2": 1.32e6, "call": "inactive"}
{"gene knocked down": "Mekk1", "reagent": 2, "Kc cell number, rep 1": 1.16e6, "Kc cell number, rep 2": 1.15e6, "S2R+ cell number, rep 1": 1.11e6, "S2R+ cell number, rep 2": 1.19e6, "call": "inactive"}
{"gene knocked down": "CG9485", "reagent": 1, "Kc cell number, rep 1": 1.53e6, "Kc cell number, rep 2": 1.66e6, "S2R+ cell number, rep 1": 1.13e6, "S2R+ cell number, rep 2": 1.28e6, "call": "inactive"}
{"gene knocked down": "CG41099", "reagent": 1, "Kc cell number, rep 1": 1.44e6, "Kc cell number, rep 2": 1.52e6, "S2R+ cell number, rep 1": 1.05e6, "S2R+ cell number, rep 2": 1.11e6, "call": "inactive"}
{"gene knocked down": "CG41099", "reagent": 2, "Kc cell number, rep 1": 1.44e6, "Kc cell number, rep 2": 1.44e6, "S2R+ cell number, rep 1": 1.04e6, "S2R+ cell number, rep 2": 1.11e6, "call": "inactive"}

Quoted from the entries so far for reference:
{"gene knocked down": "Cpr49Aa (Cuticular protein 49Aa)", "reagent": 1, "Kc cell number, rep 1": 1.61e6, "Kc cell number, rep 2": 1.62e6, "S2R+ cell number, rep 1": 1.17e6, "S2R+ cell number, rep 2": 1.30e6, "call": "inactive"}
{"gene knocked down": "CG4820", "reagent": 1, "Kc cell number, rep 1": 1.46e6, "Kc cell number, rep 2": 1.48e6, "S2R+ cell number, rep 1": 1.20e6, "S2R+ cell number, rep 2": 1.31e6, "call": "inactive"}
